Measurements published in patent publication US10899709B2, “Novel-alkynyl-substituted 3-phenylpyrrolidine-2,4-diones and use thereof as herbicides” (BAYER CROPSCIENCE AKTIENGESELLSCHAFT, priority 2015, dated 2021).
Some of these results come from one statement about several compounds together. Some ranges recur; such a range may be that of the whole group of compounds.

Experiments:
Assay type in all cases: in vivo
Avena fatua [1] = assay: Post-emergence herbicidal effect; settings: 80 g/ha, visual assessment after about 3 weeks
Description: (§1) Seeds of monocotyledonous and dicotyledonous weed and crop plants are laid out in sandy loam in wood-fibre pots, covered with soil and cultivated in a greenhouse under good growth conditions. 2 to 3 weeks after sowing, the test plants are treated at the one-leaf stage. The compounds according to the invention, formulated in the form of wettable powders (WP) or as emulsion concentrates (EC), are then sprayed as aqueous suspension or emulsion at a water application rate of 600 to 800 l/ha (converted) with the addition of 0.2% of wetting agent onto the green parts of the plants. After the test plants have been left to stand in the greenhouse under optimal growth conditions for about 3 weeks, the action of the preparations is assessed visually in comparison to untreated controls (herbicidal action in percent (%): 100% activity=the plants have died, 0% activity=like control plants).

Echinochloa crus-galli [2] = assay: Post-emergence herbicidal effect; settings: 80 g/ha, visual assessment after about 3 weeks
Description: as §1

Setaria viridis [3] = assay: Post-emergence herbicidal effect; settings: 80 g/ha, visual assessment after about 3 weeks
Description: as §1

Alopecurus myosuroides [4] = assay: Post-emergence herbicidal effect; settings: 80 g/ha, visual assessment after about 3 weeks
Description: as §1

Lolium multiflorum [5] = assay: Post-emergence herbicidal effect; settings: 80 g/ha, visual assessment after about 3 weeks
Description: as §1

Avena fatua [6] = assay: Pre-emergence herbicidal effect; settings: 320 g/ha, visual score after 3 weeks
Source text: (§2) Seeds of monocotyledonous and dicotyledonous weed plants and crop plants are laid out in wood-fibre pots in sandy loam and covered with soil. The compounds according to the invention formulated in the form of wettable powders (WP) or as emulsion concentrates (EC) are then applied as aqueous suspension or emulsion at a water application rate of 600 to 800 l/ha (converted) with the addition of 0.2% wetting agent to the surface of the covering soil. After the treatment, the pots are placed in a greenhouse and kept under good growth conditions for the trial plants. The damage to the test plants is scored visually after a test period of 3 weeks by comparison with untreated controls (herbicidal activity in percent (%): 100% activity=the plants have died, 0% activity=like control plants).

Echinochloa crus-galli [7] = assay: Pre-emergence herbicidal effect; settings: 320 g/ha, visual score after 3 weeks
Source text: as §2

Setaria viridis [8] = assay: Pre-emergence herbicidal effect; settings: 320 g/ha, visual score after 3 weeks
Source text: as §2

Alopecurus myosuroides [9] = assay: Pre-emergence herbicidal effect; settings: 320 g/ha, visual score after 3 weeks
Source text: as §2

Lolium multiflorum [10] = assay: Pre-emergence herbicidal effect; settings: 320 g/ha, visual score after 3 weeks
Source text: as §2

COCC1CCC2(C1)NC(=O)C(c1c(C)cc(C#CC3CC3)cc1C)=C2O (mixture of isomers) [Example I-14]
80-100%: Post-emergence effectiveness AVEFA (Avena fatua [1]) | Post-emergence effectiveness ECHCG (Echinochloa crus-galli [2]) | Post-emergence effectiveness SETVI (Setaria viridis [3]) | Post-emergence effectiveness ALOMY (Alopecurus myosuroides [4]) | Post-emergence effectiveness LOLMU (Lolium multiflorum [5]) | Pre-emergence effectiveness AVEFA (Avena fatua [6]) | Pre-emergence effectiveness ECHCG (Echinochloa crus-galli [7]) | Pre-emergence effectiveness SETVI (Setaria viridis [8]) | Pre-emergence effectiveness ALOMY (Alopecurus myosuroides [9]) | Pre-emergence effectiveness LOLMU (Lolium multiflorum [10])

CCc1cc(C#CC2CC2)cc(C)c1C1=C(OC(=O)C(C)C)C2(CCC(COC)C2)NC1=O (mixture of isomers) [Example Ia-10]
80-100%: Pre-emergence effectiveness AVEFA (Avena fatua [6]) | Pre-emergence effectiveness ECHCG (Echinochloa crus-galli [7]) | Pre-emergence effectiveness SETVI (Setaria viridis [8]) | Pre-emergence effectiveness ALOMY (Alopecurus myosuroides [9]) | Pre-emergence effectiveness LOLMU (Lolium multiflorum [10])

CC#Cc1cc(CC)c(C2=C(O)C3(CCC(CCOC)CC3)NC2=O)c(CC)c1 (stereo not drawn) [Example I-1]
80-100%: Post-emergence effectiveness AVEFA (Avena fatua [1]) | Post-emergence effectiveness ECHCG (Echinochloa crus-galli [2]) | Post-emergence effectiveness SETVI (Setaria viridis [3]) | Post-emergence effectiveness ALOMY (Alopecurus myosuroides [4]) | Post-emergence effectiveness LOLMU (Lolium multiflorum [5]) | Pre-emergence effectiveness AVEFA (Avena fatua [6]) | Pre-emergence effectiveness ECHCG (Echinochloa crus-galli [7]) | Pre-emergence effectiveness SETVI (Setaria viridis [8]) | Pre-emergence effectiveness ALOMY (Alopecurus myosuroides [9]) | Pre-emergence effectiveness LOLMU (Lolium multiflorum [10])

CC#Cc1cc(C)c(C2=C(O)C3(CCC(CCOC)CC3)NC2=O)c(CC)c1 (stereo not drawn) [Example I-2]
80-100%: Post-emergence effectiveness AVEFA (Avena fatua [1]) | Post-emergence effectiveness ECHCG (Echinochloa crus-galli [2]) | Post-emergence effectiveness SETVI (Setaria viridis [3]) | Post-emergence effectiveness ALOMY (Alopecurus myosuroides [4]) | Post-emergence effectiveness LOLMU (Lolium multiflorum [5]) | Pre-emergence effectiveness AVEFA (Avena fatua [6]) | Pre-emergence effectiveness ECHCG (Echinochloa crus-galli [7]) | Pre-emergence effectiveness SETVI (Setaria viridis [8]) | Pre-emergence effectiveness ALOMY (Alopecurus myosuroides [9]) | Pre-emergence effectiveness LOLMU (Lolium multiflorum [10])

CC#Cc1cc(C)c(C2=C(O)C3(CCC(COC)CC3)NC2=O)c(CC)c1 (stereo not drawn) [Example I-5]
80-100%: Post-emergence effectiveness AVEFA (Avena fatua [1]) | Post-emergence effectiveness ECHCG (Echinochloa crus-galli [2]) | Post-emergence effectiveness SETVI (Setaria viridis [3]) | Post-emergence effectiveness ALOMY (Alopecurus myosuroides [4]) | Post-emergence effectiveness LOLMU (Lolium multiflorum [5]) | Pre-emergence effectiveness AVEFA (Avena fatua [6]) | Pre-emergence effectiveness ECHCG (Echinochloa crus-galli [7]) | Pre-emergence effectiveness SETVI (Setaria viridis [8]) | Pre-emergence effectiveness ALOMY (Alopecurus myosuroides [9]) | Pre-emergence effectiveness LOLMU (Lolium multiflorum [10])

CCc1cc(C#CC2CC2)cc(C)c1C1=C(O)C2(CCC(COC)CC2)NC1=O (stereo not drawn) [Example I-7]
80-100%: Post-emergence effectiveness AVEFA (Avena fatua [1]) | Post-emergence effectiveness ECHCG (Echinochloa crus-galli [2]) | Post-emergence effectiveness SETVI (Setaria viridis [3]) | Post-emergence effectiveness ALOMY (Alopecurus myosuroides [4]) | Post-emergence effectiveness LOLMU (Lolium multiflorum [5]) | Pre-emergence effectiveness ECHCG (Echinochloa crus-galli [7]) | Pre-emergence effectiveness SETVI (Setaria viridis [8]) | Pre-emergence effectiveness ALOMY (Alopecurus myosuroides [9]) | Pre-emergence effectiveness LOLMU (Lolium multiflorum [10])

COCC1CCC2(CC1)NC(=O)C(c1c(C)cc(C#CC3CC3)cc1C)=C2O (stereo not drawn) [Example I-8]
80-100%: Post-emergence effectiveness AVEFA (Avena fatua [1]) | Post-emergence effectiveness ECHCG (Echinochloa crus-galli [2]) | Post-emergence effectiveness SETVI (Setaria viridis [3]) | Post-emergence effectiveness ALOMY (Alopecurus myosuroides [4]) | Post-emergence effectiveness LOLMU (Lolium multiflorum [5]) | Pre-emergence effectiveness ECHCG (Echinochloa crus-galli [7]) | Pre-emergence effectiveness SETVI (Setaria viridis [8]) | Pre-emergence effectiveness ALOMY (Alopecurus myosuroides [9]) | Pre-emergence effectiveness LOLMU (Lolium multiflorum [10])

CC#Cc1cc(C)c(C2=C(O)C3(CCC(COC)C3)NC2=O)c(CC)c1 (stereo not drawn) [Example I-9]
80-100%: Post-emergence effectiveness AVEFA (Avena fatua [1]) | Post-emergence effectiveness ECHCG (Echinochloa crus-galli [2]) | Post-emergence effectiveness SETVI (Setaria viridis [3]) | Post-emergence effectiveness ALOMY (Alopecurus myosuroides [4]) | Post-emergence effectiveness LOLMU (Lolium multiflorum [5]) | Pre-emergence effectiveness AVEFA (Avena fatua [6]) | Pre-emergence effectiveness ECHCG (Echinochloa crus-galli [7]) | Pre-emergence effectiveness SETVI (Setaria viridis [8]) | Pre-emergence effectiveness ALOMY (Alopecurus myosuroides [9]) | Pre-emergence effectiveness LOLMU (Lolium multiflorum [10])

COCC1CCC2(C1)NC(=O)C(c1c(C)cc(C#CC3CC3)cc1C)=C2O (stereo not drawn) [Example I-13]
80-100%: Post-emergence effectiveness AVEFA (Avena fatua [1]) | Post-emergence effectiveness ECHCG (Echinochloa crus-galli [2]) | Post-emergence effectiveness SETVI (Setaria viridis [3]) | Post-emergence effectiveness ALOMY (Alopecurus myosuroides [4]) | Post-emergence effectiveness LOLMU (Lolium multiflorum [5]) | Pre-emergence effectiveness ECHCG (Echinochloa crus-galli [7]) | Pre-emergence effectiveness SETVI (Setaria viridis [8]) | Pre-emergence effectiveness ALOMY (Alopecurus myosuroides [9]) | Pre-emergence effectiveness LOLMU (Lolium multiflorum [10])

CCOC(=O)OC1=C(c2c(C)cc(C#CC3CC3)cc2CC)C(=O)N[C@]12CC[C@H](COC)C2 [Example Ia-1]
80-100%: Pre-emergence effectiveness AVEFA (Avena fatua [6]) | Pre-emergence effectiveness ECHCG (Echinochloa crus-galli [7]) | Pre-emergence effectiveness SETVI (Setaria viridis [8]) | Pre-emergence effectiveness ALOMY (Alopecurus myosuroides [9]) | Pre-emergence effectiveness LOLMU (Lolium multiflorum [10])

CCOC(=O)OC1=C(c2c(C)cc(C#CC3CC3)cc2C)C(=O)NC12CCC(COC)C2 (stereo not drawn) [Example Ia-2]
80-100%: Pre-emergence effectiveness AVEFA (Avena fatua [6]) | Pre-emergence effectiveness ECHCG (Echinochloa crus-galli [7]) | Pre-emergence effectiveness SETVI (Setaria viridis [8]) | Pre-emergence effectiveness ALOMY (Alopecurus myosuroides [9]) | Pre-emergence effectiveness LOLMU (Lolium multiflorum [10])

CC#Cc1cc(CC)c(C2=C(OC(=O)C(C)C)C3(CCC(CCOC)CC3)NC2=O)c(CC)c1 (stereo not drawn) [Example Ia-5]
80-100%: Pre-emergence effectiveness AVEFA (Avena fatua [6]) | Pre-emergence effectiveness ECHCG (Echinochloa crus-galli [7]) | Pre-emergence effectiveness SETVI (Setaria viridis [8]) | Pre-emergence effectiveness ALOMY (Alopecurus myosuroides [9]) | Pre-emergence effectiveness LOLMU (Lolium multiflorum [10])

CC#Cc1cc(C)c(C2=C(OC(=O)C(C)C)C3(CCC(COC)C3)NC2=O)c(CC)c1 (stereo not drawn) [Example Ia-7]
80-100%: Post-emergence effectiveness AVEFA (Avena fatua [1]) | Post-emergence effectiveness ECHCG (Echinochloa crus-galli [2]) | Post-emergence effectiveness SETVI (Setaria viridis [3]) | Post-emergence effectiveness ALOMY (Alopecurus myosuroides [4]) | Post-emergence effectiveness LOLMU (Lolium multiflorum [5])

CC#Cc1cc(CC)c(C2=C(OC(=O)C(C)C)C3(CCC(OCCOC)CC3)NC2=O)c(CC)c1 (stereo not drawn) [Example Ia-13]
80-100%: Pre-emergence effectiveness AVEFA (Avena fatua [6]) | Pre-emergence effectiveness ECHCG (Echinochloa crus-galli [7]) | Pre-emergence effectiveness SETVI (Setaria viridis [8]) | Pre-emergence effectiveness ALOMY (Alopecurus myosuroides [9]) | Pre-emergence effectiveness LOLMU (Lolium multiflorum [10])

CC#Cc1cc(C)c(C2=C(OS(C)(=O)=O)C3(CCC(COC)C3)NC2=O)c(CC)c1 (stereo not drawn) [Example Ia-16]
80-100%: Pre-emergence effectiveness ECHCG (Echinochloa crus-galli [7]) | Pre-emergence effectiveness SETVI (Setaria viridis [8]) | Pre-emergence effectiveness ALOMY (Alopecurus myosuroides [9]) | Pre-emergence effectiveness LOLMU (Lolium multiflorum [10])

CC#Cc1cc(C)c(C2=C(OC(=O)C(C)C)C3(CCC(CCOC)CC3)NC2=O)c(CC)c1 (stereo not drawn) [Ia-4]
80-100%: Pre-emergence effectiveness ECHCG (Echinochloa crus-galli [7]) | Pre-emergence effectiveness SETVI (Setaria viridis [8]) | Pre-emergence effectiveness ALOMY (Alopecurus myosuroides [9]) | Pre-emergence effectiveness LOLMU (Lolium multiflorum [10])

CC#Cc1cc(C)c(C2=C(OC(=O)OCC)C3(CCC(OCCOC)CC3)NC2=O)c(CC)c1 (stereo not drawn) [Ia-14]
80-100%: Pre-emergence effectiveness AVEFA (Avena fatua [6]) | Pre-emergence effectiveness ECHCG (Echinochloa crus-galli [7]) | Pre-emergence effectiveness SETVI (Setaria viridis [8]) | Pre-emergence effectiveness ALOMY (Alopecurus myosuroides [9]) | Pre-emergence effectiveness LOLMU (Lolium multiflorum [10])
